Experimental data reported in patent US9540428B2, “Extracellular matrix heparin-binding domains” (EPFL-TTO, priority 2012, dated 2017).

B1: TNC III1-5: recombinant tenascin C fibronectin type III repeats 1-5 (E622 to A1074) with transglutaminase substrate NQEQVSPL and 6×His tag, SEQ ID NO:1 (protein)
chain: METDTLLLWVLLLWVPGSTGDAAQPAIEGRNQEQVSPLGGSEVSPPKDLVVTEVTEETVNLAWDNEMRVTEYLVVYTPTHEGGLEMQFRVPGDQTSTIIQELEPGVEYFIRVFAILENKKSIPVSARVATYLPAPEGLKFKSIKETSVEVEWDPLDIAFETWEIIFRNMNKEDEGEITKSLRRPETSYRQTGLAPGQEYEISLHIVKNNTRGPGLKRVTTTRLDAPSQIEVKDVTDTTALITWFKPLAEIDGIELTYGIKDVPGDRTTIDLTEDENQYSIGNLKPDTEYEVSLISRRGDMSSNPAKETFTTGLDAPRNLRRVSQTDNSITLEWRNGKAAIDSYRIKYAPISGGDHAEVDVPKSQQATTKTTLTGLRPGTEYGIGVSAVKEDKESNPATINAATELDTPKDLQVSETAETSLTLLWKTPLAKFDRYRLNYSLPTGQWVGVQLPRNTTSYVLRGLEPGQEYNVLLTAEKGRHKSKPARVKASTEQAGGGSHHHHHH
modifications: Tenascin III signal sequence with polyhistidine tag

Assay: Incorporation of fragments into 2% TG-PEG gel
Conditions: 5 μM fragment, after 2 washes with PBS

Molecule	fragments bound into gels [%]
FN III9*-10-TNC III1-5: fusion protein of fibronectin integrin binding domain FN III9*-10 and TNC III1-5 with TG substrate, SEQ ID NO:5	96
B1	98
